Results: the supplement of paper PMC7580552
Structures can show the parent of a compound that is named as a salt. This is one part of the list. Part of the spread comes from offsets between plates or batches.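 The strain is a K-12 laboratory model grown without shaking in 96-well plates, and biofilm is the crystal violet stain retained on the wells, read as absorbance. Drugs were picked as candidate specific biofilm blockers when they cut staining strongly but slowed free-floating growth by less than 70%.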

system: Escherichia coli W3110; assay: biofilm formation (crystal violet staining) relative to untreated control; higher = more biofilm; details: 10 µM; 20-24 h; 30 °C; TB

Compound | biofilm formation [%]
Nc1ccc(S(=O)(=O)Nc2ccnn2-c2ccccc2)cc1 [Sulfaphenazole] | 47
C[C@H](O)C(=O)Nc1c(I)c(C(=O)NC(CO)CO)c(I)c(C(=O)NC(CO)CO)c1I [Iopamidol] | 101
CC(C)CC(=O)N[C@H](C(=O)N[C@H](C(=O)N[C@@H](CC(C)C)[C@@H](O)CC(=O)N[C@@H](C)C(=O)N[C@@H](CC(C)C)[C@@H](O)CC(=O)O)C(C)C)C(C)C [Pepstatin A] | 85
CC[C@H]1OC(=O)[C@H](C)[C@@H](O[C@H]2C[C@@](C)(OC)[C@@H](O)[C@H](C)O2)[C@H](C)[C@@H](O[C@@H]2O[C@H](C)C[C@H](N(C)C)[C@H]2O)[C@](C)(O)C[C@@H](C)[C@@H]2N[C@@H](COCCOC)O[C@H]([C@H]2C)[C@]1(C)O [Dirithromycin] | 69
O=C1CC2(CCCC2)CC(=O)N1CCCCN1CCN(c2ncccn2)CC1 [Buspirone hydrochloride] | 114
O=C(O)/C=C/c1ccc(Cn2ccnc2)cc1 [Ozagrel hydrochloride] | 76
CCCc1nc(C)c2c(=O)nc(-c3cc(S(=O)(=O)N4CCN(CC)CC4)ccc3OCC)[nH]n12 [Vardenafil] | 56
CCn1nc(C(=O)O)c(=O)c2cc3c(cc21)OCO3 [Cinoxacin] | 31
Cc1cc(/C=C/c2ccc3cc(N(C)C)ccc3[n+]2C)c(C)n1-c1ccccc1 [Pyrvinium pamoate] | 66
COCCOC(=O)C1=C(C)NC(C)=C(C(=O)OC/C=C/c2ccccc2)C1c1cccc([N+](=O)[O-])c1 (centres undefined) [Cilnidipine] | 81
CCCCNc1ccc(C(=O)OCCOCCOCCOCCOCCOCCOCCOCCOCCOC)cc1 [Benzonatate] | 74
C=C1/C(=C\C=C2/CCC[C@]3(C)[C@@H]([C@H](C)/C=C/[C@@H](O)C4CC4)CC[C@@H]23)C[C@@H](O)C[C@@H]1O [Calcipotriene] | 67
Cc1ccc(Cl)c(Nc2ccccc2C(=O)O)c1Cl [Meclofenamic acid sodium salt monohydrate] | 57
O=C(NCCO[N+](=O)[O-])c1cccnc1 [Nicorandil] | 47
COC(=O)Nc1nc2ccc(SC(C)C)cc2[nH]1 [Methiazole] | 67
CN(C)CCOc1ccc(/C(=C(/CCCl)c2ccccc2)c2ccccc2)cc1 [Toremifene] | 65
CCN1CCN(C(=O)N[C@@H](C(=O)N[C@@H]2C(=O)N3C(C(=O)O)=C(CSc4nnnn4C)CS[C@H]23)c2ccc(O)cc2)C(=O)C1=O [Cefoperazone dihydrate] | 8
CC(C(=O)O)c1ccc(N2Cc3ccccc3C2=O)cc1 (centres undefined) [Indoprofen] | 68
CC1=Nc2ccc(Cl)cc2S(=O)(=O)N1 [Diazoxide] | 54
Oc1ccc(OCc2ccccc2)cc1 [Monobenzone] | 60
C[C@H]1C[C@H]2[C@@H]3CCC4=CC(=O)C=C[C@]4(C)[C@@]3(F)[C@@H](O)C[C@]2(C)[C@@]1(O)C(=O)CO [Betamethasone] | 53
Cc1nnc(NS(=O)(=O)c2ccc(N)cc2)s1 [Sulfamethizole] | 34
CCN1CCC[C@H]1CNC(=O)c1c(OC)ccc(Br)c1OC [Remoxipride Hydrochloride] | 93

Part of the list above, as a markdown table.

| Compound | biofilm formation [%] |
| --- | --- |
| CC[C@H]1OC(=O)[C@H](C)[C@@H](O[C@H]2C[C@@](C)(OC)[C@@H](O)[C@H](C)O2)[C@H](C)[C@@H](O[C@@H]2O[C@H](C)C[C@H](N(C)C)[C@H]2O)[C@](C)(O)C[C@@H](C)[C@@H]2N[C@@H](COCCOC)O[C@H]([C@H]2C)[C@]1(C)O [Dirithromycin] | 69 |
| O=C1CC2(CCCC2)CC(=O)N1CCCCN1CCN(c2ncccn2)CC1 [Buspirone hydrochloride] | 114 |
| O=C(O)/C=C/c1ccc(Cn2ccnc2)cc1 [Ozagrel hydrochloride] | 76 |
| CCCc1nc(C)c2c(=O)nc(-c3cc(S(=O)(=O)N4CCN(CC)CC4)ccc3OCC)[nH]n12 [Vardenafil] | 56 |

Additional structures.

Compound | biofilm formation [%]
CCN1CCN(c2cc3c(cc2F)c(=O)c(C(=O)O)cn3C2CC2)CC1 [Enrofloxacin] | 15
Cc1cnc(NC(=O)C2=C(O)c3ccccc3S(=O)(=O)N2C)s1 [Meloxicam] | 57
O=C(O)COC(=O)Cc1ccccc1Nc1c(Cl)cccc1Cl [Aceclofenac] | 62
C[C@H](N[C@@H](CCc1ccccc1)C(=O)O)C(=O)N1CCC[C@H]1C(=O)O [Enalaprilat dihydrate] | 65
CN(C)[C@@H]1C(O)=C(C(N)=O)C(=O)[C@@]2(O)C(O)=C3C(=O)c4c(O)cccc4[C@@](C)(O)[C@H]3C[C@@H]12 [Tetracycline hydrochloride] | 22
CC(=O)[C@@]12O[C@](C)(c3ccccc3)O[C@@H]1C[C@H]1[C@@H]3CCC4=CC(=O)CC[C@]4(C)[C@H]3CC[C@@]12C [Algestone acetophenide] | 63
C[C@]12CCC(=O)C=C1CC[C@@H]1[C@@H]2C(=O)C[C@@]2(C)[C@H]1CC[C@]2(O)C(=O)CO [Cortisone] | 56
COC(=O)[C@H](c1ccccc1Cl)N1CCc2sccc2C1 [Clopidogrel] | 66
COCCCC/C(=N\OCCN)c1ccc(C(F)(F)F)cc1 [Fluvoxamine maleate] | 60
CCOC(=O)N1CCC(=C2c3ccc(Cl)cc3CCc3cccnc32)CC1 [Loratadine] | 60
COc1ccc(CC(C)NCC(O)c2ccc(O)c(NC=O)c2)cc1 (centres undefined) [Formoterol fumarate] | 120
c1ccc(CC2=NCCN2)cc1 [Tolazoline hydrochloride] | 91
OCCN1CCN(CCCN2c3ccccc3Sc3ccc(C(F)(F)F)cc32)CC1 [Fluphenazine dihydrochloride] | 72
CC(C)(Oc1ccc(CCNC(=O)c2ccc(Cl)cc2)cc1)C(=O)O [Bezafibrate] | 70
O=C1c2ccccc2C(=O)C1c1ccccc1 [Phenindione] | 59
Clc1ccc2c(c1)C(N1CCNCC1)=Nc1ccccc1O2 [Amoxapine] | 11
O=C(O)CCc1nc(-c2ccccc2)c(-c2ccccc2)o1 [Oxaprozin] | 102
CC[C@H]1OC(=O)[C@H](C)[C@@H](O[C@H]2C[C@@](C)(OC)[C@@H](O)[C@H](C)O2)[C@H](C)[C@@H](O[C@@H]2O[C@H](C)C[C@H](N(C)C)[C@H]2O)[C@](C)(O)C[C@@H](C)C(=O)[C@H](C)[C@@H](O)[C@]1(C)O [Erythromycin] | 59
Cc1c(Cl)cccc1Nc1ccccc1C(=O)O [Tolfenamic acid] | 58
CCCSc1ccc2[nH]c(NC(=O)OC)nc2c1 [Albendazole] | 57
CO[C@H]1/C=C/O[C@@]2(C)Oc3c(C)c(O)c4c(O)c(c(/C=N/N5CCN(C)CC5)c(O)c4c3C2=O)NC(=O)/C(C)=C\C=C\[C@H](C)[C@H](O)[C@@H](C)[C@@H](O)[C@@H](C)[C@H](OC(C)=O)[C@@H]1C [Rifampicin] | 18
Cc1ccc(N(CC2=NCCN2)c2cccc(O)c2)cc1 [Phentolamine hydrochloride] | 87
CCc1ccc(CCOc2ccc(CC3SC(=O)NC3=O)cc2)nc1 (centres undefined) [Pioglitazone] | 43

Compound | biofilm formation [%]
CC(C(=O)O)c1cccc(Oc2ccccc2)c1 (centres undefined) [Fenoprofen calcium salt dihydrate] | 58
Oc1ccc(C2CNCCc3c2cc(O)c(O)c3Cl)cc1 (centres undefined) [Fenoldopam] | 60
CCCc1ncc(C[n+]2ccccc2C)c(N)n1 [Amprolium hydrochloride] | 89
CC(=O)OCC(=O)NCCCOc1cccc(CN2CCCCC2)c1 [Roxatidine Acetate hydrochloride] | 90
CCn1cc(C(=O)O)c(=O)c2cc(F)c(N3CCNCC3)nc21 [Enoxacin] | 18
CC(C)(C)C(=O)OCOC(=O)[C@@H]1N2C(=O)[C@@H](/N=C/N3CCCCCC3)[C@H]2SC1(C)C [Pivmecillinam hydrochloride] | 35
CNc1ncnc2c1ncn2[C@@H]1O[C@H](CO)[C@@H](O)[C@H]1O [N6-methyladenosine] | 66
OCC(O)CN1CCN(c2ccccc2)CC1 (racemic) [Dropropizine (R,S)] | 55
C[C@@H](O)[C@H]1C(=O)N2C(C(=O)O)=C(SCCNC=N)C[C@H]12 [Imipenem] | 8
c1ccc2c(c1)CCCC2C1=NCCN1 (centres undefined) [Tetrahydrozoline hydrochloride] | 66
C1N2CN3CN1CN(C2)C3 [Methenamine] | 75
O=C1NCCN1c1ncc([N+](=O)[O-])s1 [Niridazole] | 54
CCCCCN(C)CCC(O)(P(=O)(O)O)P(=O)(O)O [Ibandronate sodium] | 49
Nc1ccc(S(=O)(=O)NC(=O)c2ccccc2)cc1 [Sulfabenzamide] | 52
C=C(CC)C(=O)c1ccc(OCC(=O)O)c(Cl)c1Cl [Ethacrynic acid] | 68
CS(=O)(=O)c1ccc([C@@H](O)[C@@H](CF)NC(=O)C(Cl)Cl)cc1 [Florfenicol] | 30
CCN(CC)CCCC(C)Nc1ccnc2cc(Cl)ccc12 (centres undefined) [Chloroquine diphosphate] | 86
CN1CCC(=C2c3ccccc3C=Cc3ccccc32)CC1 [Cyproheptadine hydrochloride] | 11
CC(C)(C)NC[C@@H](O)COc1cccc2c1CCCC2=O [(+) -Levobunolol hydrochloride] | 68
CO[C@H]1/C=C/O[C@@]2(C)Oc3c(C)c(O)c4c(O)c(c(/C=N/N5CCN(C6CCCC6)CC5)c(O)c4c3C2=O)NC(=O)/C(C)=C\C=C\[C@H](C)[C@H](O)[C@@H](C)[C@@H](O)[C@@H](C)[C@H](OC(C)=O)[C@@H]1C [Rifapentine] | 10
N=C(N)NC(=N)NCCc1ccccc1 [Phenformin hydrochloride] | 87
C[C@H]1O[C@H](O[C@H]2[C@H](O)[C@@H](O)[C@@H](O[C@H]3[C@H](O)[C@@H](O)C(O)O[C@@H]3CO)O[C@@H]2CO)[C@H](O)[C@@H](O)[C@@H]1N[C@H]1C=C(CO)[C@@H](O)[C@H](O)[C@H]1O (some centres undefined) [Acarbose] | 66
NNCCc1ccccc1 [Phenelzine sulfate] | 83
